According to PMC2279262:
Substitutions are numbered along the chain they refer to. These are yes or no findings as the source states them, for the method shown. In cells and extracts the contact can be indirect. Some binding calls cover weakened binding; strength is not graded here. Where a sequence is shown, tags or fusion partners need not be part of it.

Key:
Assay in all cases: co-IP; CHO cells co-transfected with WT or mutant CD81-EGFP and CD9P-1 or EWI-2; lysed after 48 h in 30 mM Tris pH 7.4, 150 mM NaCl, 1% digitonin; immunoprecipitation with antibodies against CD81 (1D6), CD9P-1 and EWI-2; blots with biotin-labelled mAbs TS81, 1F11 and 8A12
[1] = target: T1, CD81 VVD (135–137)→AAA mutant in fusion with EGFP (human) (UniProt P60033)
T1 sequence: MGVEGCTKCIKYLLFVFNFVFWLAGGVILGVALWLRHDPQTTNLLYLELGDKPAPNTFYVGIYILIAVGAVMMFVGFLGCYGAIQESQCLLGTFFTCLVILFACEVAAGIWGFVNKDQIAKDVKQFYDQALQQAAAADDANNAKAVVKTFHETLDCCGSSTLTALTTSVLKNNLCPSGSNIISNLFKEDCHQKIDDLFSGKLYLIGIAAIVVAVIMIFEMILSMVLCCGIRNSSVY

[2] = target: T2, CD81 DDD (137–139)→AAA mutant in fusion with EGFP (human) (UniProt P60033)
T2 sequence: T1 sequence with A135V, A136V, D138A, D139A

[3] = target: T3, WT CD81 in fusion with EGFP (human) (UniProt P60033)
T3 sequence: T1 sequence with A135V, A136V, A137D

EWI-2 = target: T4, EWI-2 (UniProt Q969P0)
T4 sequence: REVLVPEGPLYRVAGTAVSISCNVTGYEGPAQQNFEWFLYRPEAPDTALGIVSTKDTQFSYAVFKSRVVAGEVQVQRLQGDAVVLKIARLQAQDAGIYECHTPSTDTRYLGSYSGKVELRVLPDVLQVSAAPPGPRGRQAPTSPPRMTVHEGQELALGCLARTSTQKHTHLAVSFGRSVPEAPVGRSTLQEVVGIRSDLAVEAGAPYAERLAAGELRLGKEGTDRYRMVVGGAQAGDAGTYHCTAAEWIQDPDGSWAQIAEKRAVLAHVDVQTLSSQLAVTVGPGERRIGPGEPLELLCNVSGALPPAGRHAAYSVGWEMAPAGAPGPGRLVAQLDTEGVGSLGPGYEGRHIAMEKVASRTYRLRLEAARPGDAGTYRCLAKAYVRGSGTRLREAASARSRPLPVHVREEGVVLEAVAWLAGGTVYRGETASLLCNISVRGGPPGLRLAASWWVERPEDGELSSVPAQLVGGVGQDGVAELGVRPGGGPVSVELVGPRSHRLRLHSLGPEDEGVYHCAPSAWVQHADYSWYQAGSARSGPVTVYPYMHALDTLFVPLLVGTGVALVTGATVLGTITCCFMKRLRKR

CD9P-1 = target: T5, CD9P-1 (UniProt Q9P2B2)
T5 sequence: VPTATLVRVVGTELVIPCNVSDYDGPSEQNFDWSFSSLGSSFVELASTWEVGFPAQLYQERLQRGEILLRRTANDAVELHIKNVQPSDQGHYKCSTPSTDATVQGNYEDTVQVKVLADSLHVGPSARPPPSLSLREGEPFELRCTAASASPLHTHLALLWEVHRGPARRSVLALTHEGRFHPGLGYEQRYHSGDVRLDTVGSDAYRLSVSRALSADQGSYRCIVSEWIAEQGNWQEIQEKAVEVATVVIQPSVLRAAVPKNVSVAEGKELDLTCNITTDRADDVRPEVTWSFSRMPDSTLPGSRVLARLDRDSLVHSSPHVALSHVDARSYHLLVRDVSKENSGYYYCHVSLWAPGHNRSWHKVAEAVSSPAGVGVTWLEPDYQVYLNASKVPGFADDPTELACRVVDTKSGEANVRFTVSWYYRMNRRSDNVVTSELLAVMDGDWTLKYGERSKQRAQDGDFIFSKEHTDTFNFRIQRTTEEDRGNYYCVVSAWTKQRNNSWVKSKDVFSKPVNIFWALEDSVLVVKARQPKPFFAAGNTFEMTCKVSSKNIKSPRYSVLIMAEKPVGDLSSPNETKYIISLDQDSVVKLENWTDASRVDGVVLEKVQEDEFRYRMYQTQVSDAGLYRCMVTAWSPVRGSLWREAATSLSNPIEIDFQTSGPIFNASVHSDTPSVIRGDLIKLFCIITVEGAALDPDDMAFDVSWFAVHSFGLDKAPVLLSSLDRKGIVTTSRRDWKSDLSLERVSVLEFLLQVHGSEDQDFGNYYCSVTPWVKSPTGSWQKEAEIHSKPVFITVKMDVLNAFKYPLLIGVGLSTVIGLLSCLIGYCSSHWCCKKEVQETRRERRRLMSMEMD

B1: EWI-2 (protein, UniProt Q969P0 28-613)
chain: T4 sequence
B1 was tested, and the binding [1] was “binds”, the binding [2] was “binds” and the binding [3] was “binds”.

B2: CD9P-1 (protein, UniProt Q9P2B2 26-879)
chain: T5 sequence
B2 was tested, and the binding [1] was “binds”, the binding [2] was “binds” and the binding [3] was “binds”.

B3: CD81 DDD (137–139)→AAA mutant in fusion with EGFP (protein, UniProt P60033 1-236)
chain: T1 sequence with A135V, A136V, D138A, D139A
B3 was tested, and the binding (EWI-2) was “binds” and the binding (CD9P-1) was “binds”.

B4: CD81 VVD (135–137)→AAA mutant in fusion with EGFP (protein, UniProt P60033 1-236)
chain: T1 sequence
For B4, the binding (EWI-2) was “binds” and the binding (CD9P-1) was “binds”.
